Source: PubChem BioAssay AID743121 (NCATS, 2013)
In all, the deposit lists about 26,000 reagents; this is a part drawn at random. Over the whole deposit, 167 (0.63%) got an active call. 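Calls are per gene from RSA p-values that are not deposited; an individual active-marked siRNA can sensitise only weakly.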 Unmarked entries are inactive. Reagents against one gene are numbered here.

Purpose: 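Partners whose loss is lethal together with topoisomerase I blockade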 (primary screen)
System: MDA-MB-231 cells, a human breast cancer line
Reagent: single siRNA against human genes, 20 nM siRNA (0.8 pmol per well)
Timing: 120 h (drug added 48 h after transfection, read 72 h later)
Challenge: camptothecin 20 nM (about EC30) for 72 h; vehicle 0.1% DMSO in parallel plates
Detection: 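Cell viability by ATP luminescence (CellTiter-Glo) as % of non-targeting siRNA wells, and the log2 ratio of viability without drug over viability with camptothecin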
Scale: log2 vehicle/camptothecin viability: higher = stronger sensitisation to camptothecin; viability with camptothecin and viability without drug: higher = more viable cells
Hit rule: 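Each gene scored by redundant siRNA activity (RSA) over its individual siRNA ratios; a gene is called active at p < 0.001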

gene symbol	reagent	log2 vehicle/camptothecin viability	viability with camptothecin (% of control)	viability without drug (% of control)
THBS4 (GeneID 7060)	1	0.24	68.9	81.4
THBS4 (GeneID 7060)	2	-0.202	113	98.2
THBS4 (GeneID 7060)	3	0.35	63.6	81.1
THBS4 (GeneID 7060)	4	0.037	78	80.1
ADK (GeneID 132)	1	-0.269	63.4	52.6
ADK (GeneID 132)	2	-0.432	94.2	69.8
ADK (GeneID 132)	3	-0.809	101	57.9
ADK (GeneID 132)	4	0.0971	73.8	78.9
SNAI2 (GeneID 6591)	1	0.393	10.3	13.5
SNAI2 (GeneID 6591)	2	-0.321	81.7	65.4
SNAI2 (GeneID 6591)	3	-0.0904	74.8	70.3
SNAI2 (GeneID 6591)	4	0.0344	73.1	74.8
LNX1 (GeneID 84708)	1	-0.388	121	92.7
LNX1 (GeneID 84708)	2	-0.152	89.3	80.4
LNX1 (GeneID 84708)	3	-0.343	95.2	75
LNX1 (GeneID 84708)	4	-0.23	96.4	82.2
PRLHR (GeneID 2834)	1	-0.323	113	90.5
PRLHR (GeneID 2834)	2	-0.188	69.2	60.8
PRLHR (GeneID 2834)	3	-0.339	47.5	37.5
PRLHR (GeneID 2834)	4	-0.238	94.4	80
OR10R2 (GeneID 343406)	1	-0.172	103	91.5
OR10R2 (GeneID 343406)	2	0.205	28.1	32.4
OR10R2 (GeneID 343406)	3	-0.138	61.6	56
OR10R2 (GeneID 343406)	4	-0.352	117	91.8
ARHGAP35 (GeneID 2909)	1	-0.198	70.7	61.6
ARHGAP35 (GeneID 2909)	2	-0.327	90.6	72.2
ARHGAP35 (GeneID 2909)	3	0.317	14.2	17.6
ARHGAP35 (GeneID 2909)	4	0.0109	48.1	48.5
TBR1 (GeneID 10716)	1	0.194	28.2	32.2
TBR1 (GeneID 10716)	2	-0.251	35.2	29.5
TBR1 (GeneID 10716)	3	-0.12	75.1	69.1
TBR1 (GeneID 10716)	4	-0.321	85.6	68.5
TSKS (GeneID 60385)	1	-0.228	55.3	47.2
TSKS (GeneID 60385)	2	-0.493	92	65.3
TSKS (GeneID 60385)	3	0.542	37.6	54.7
TSKS (GeneID 60385)	4	-0.85	16.7	9.25
OLIG1 (GeneID 116448)	1	-0.0667	95.9	91.6
OLIG1 (GeneID 116448)	2	-0.299	121	98.2
OLIG1 (GeneID 116448)	3	-0.65	80	51
OLIG1 (GeneID 116448)	4	0.0161	90	91.1
CD1C (GeneID 911)	1	-0.386	95.3	72.9
CD1C (GeneID 911)	2	-0.217	121	104
CD1C (GeneID 911)	3	-0.0442	91.8	89
CD1C (GeneID 911)	4	-0.0556	100	96.2
ADGRB1 (GeneID 575)	1	0.0261	48.7	49.6
ADGRB1 (GeneID 575)	2	-0.703	71.6	44
ADGRB1 (GeneID 575)	3	0.184	95.6	109
ADGRB1 (GeneID 575)	4	-0.0632	56.6	54.2
KLK5 (GeneID 25818)	1	-0.46	43.7	31.7
KLK5 (GeneID 25818)	2	0.806	22.6	39.4
KLK5 (GeneID 25818)	3	-0.271	66.7	55.3
KLK5 (GeneID 25818)	4	0.00588	65.9	66.2
CNGB1 (GeneID 1258)	1	-0.186	116	102
CNGB1 (GeneID 1258)	2	0.255	40	47.8
CNGB1 (GeneID 1258)	3	-0.592	77.6	51.5
CNGB1 (GeneID 1258)	4	0.0819	63.5	67.2
TG (GeneID 7038)	1	-0.296	119	96.7
TG (GeneID 7038)	2	-0.0409	42.5	41.3
TG (GeneID 7038)	3	-0.336	86.4	68.4
TG (GeneID 7038)	4	0.36	63	80.8
CRYZL1 (GeneID 9946)	1	0.252	68.5	81.5
CRYZL1 (GeneID 9946)	2	-0.45	104	76.3
CRYZL1 (GeneID 9946)	3	1.05	28.8	59.6
UIMC1 (GeneID 51720)	1	-0.245	118	99.9
UIMC1 (GeneID 51720)	2	-0.324	119	95.1
UIMC1 (GeneID 51720)	3	-0.182	59.4	52.3
SNRNP70 (GeneID 6625)	1	0.641	18.8	29.4
SNRNP70 (GeneID 6625)	2	-0.012	45	44.6
SNRNP70 (GeneID 6625)	3	-0.462	29.8	21.6
SNRNP70 (GeneID 6625)	4	-0.36	77.6	60.5
CYSTM1 (GeneID 84418)	1	-0.418	74	55.4
CYSTM1 (GeneID 84418)	2	-0.276	64	52.8
CYSTM1 (GeneID 84418)	3	-0.145	107	96.3
CYSTM1 (GeneID 84418)	4	-0.437	95	70.2
IL4R (GeneID 3566)	1	-0.0855	63.4	59.8
IL4R (GeneID 3566)	2	-0.337	84.3	66.7
IL4R (GeneID 3566)	3	-0.495	82.5	58.5
SLC52A1 (GeneID 55065)	1	1.84	21.2	75.9
SLC52A1 (GeneID 55065)	2	-0.0579	76.5	73.5
SLC52A1 (GeneID 55065)	3	-0.286	102	84
SLC52A1 (GeneID 55065)	4	-0.371	92.9	71.8
CTSH (GeneID 1512)	1	-0.196	77	67.2
CTSH (GeneID 1512)	2	-0.334	70.5	55.9
CTSH (GeneID 1512)	3	0.221	44.7	52
CTSH (GeneID 1512)	4	0.162	16.9	18.9
KCNAB1 (GeneID 7881)	1	-0.147	73.9	66.7
KCNAB1 (GeneID 7881)	2	-0.156	91	81.7
KCNAB1 (GeneID 7881)	3	-0.461	118	85.5
KCNAB1 (GeneID 7881)	4	-0.0714	97.9	93.1
